From patent publication US20030186941A1, “Cyclopenteneone derivatives” (priority 1999, published 2003)
For at least one compound, name, drawing or mass did not settle the structure.

Chains of the proteins cited; added tags and fusions are not shown.
UniProt Q04206, whole entry: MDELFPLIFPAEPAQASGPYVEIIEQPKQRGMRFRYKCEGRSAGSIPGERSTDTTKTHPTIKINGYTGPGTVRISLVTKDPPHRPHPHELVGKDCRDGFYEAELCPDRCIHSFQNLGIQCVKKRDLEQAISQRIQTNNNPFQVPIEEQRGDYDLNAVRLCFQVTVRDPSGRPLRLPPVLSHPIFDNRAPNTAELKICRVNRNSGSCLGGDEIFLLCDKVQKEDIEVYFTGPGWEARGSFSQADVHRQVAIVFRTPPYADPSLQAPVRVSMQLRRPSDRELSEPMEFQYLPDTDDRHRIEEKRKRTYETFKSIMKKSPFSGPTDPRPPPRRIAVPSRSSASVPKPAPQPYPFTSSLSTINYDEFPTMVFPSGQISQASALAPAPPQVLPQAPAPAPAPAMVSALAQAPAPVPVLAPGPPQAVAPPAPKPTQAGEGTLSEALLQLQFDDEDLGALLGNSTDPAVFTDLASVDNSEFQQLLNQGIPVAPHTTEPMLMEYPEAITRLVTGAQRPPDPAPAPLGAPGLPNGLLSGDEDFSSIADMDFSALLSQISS

Key:
NF-κB = NF-κB (Homo sapiens, UniProt Q04206); test: EMSA of NF-κB DNA-binding activity in TPA-stimulated Jurkat T cells; assay type: cell-based; design: endogenous in cells; host or cells: Jurkat T cells (human lymphoblastoid), TPA-stimulated; whole-cell extracts; conditions: test compound 1 hour then TPA 25 ng/ml, extracts after 3 hours
Protocol: Methods: Human lymphoblastoid Jurkat T cells were grown at 37° C. in a 5% CO2 atmosphere in RPM1 1640 medium (GIBCO BRL, Gaithersburg, Md.) supplemented with 10% fetal calf serum (FCS, Hyclone Europe Ltd, UK) 2 mM glutamine and antibiotics according to the method described by A. Rossi et al. (Proc. Natl. Acad. Sci. USA 94: 746-750, 1997). […]
Specificity of protein-DNA complexes was verified by immunoreactivity with polyclonal antibodies specific for p65 (Rel A) or for HSF-1, for NF-κB and HSF respectively. Quantitative evaluation of NF-κB- and HSF-DNA complex formation was determined by Molecular Dynamics Phosphorlmager (MDP) analysis and was expressed in arbitrary units, as described in A. Rossi et al.(J. Biol. Chem. 273: 16446-16452, 1998). […]

[1] = test system: parainfluenza Sendai virus (SV); assay type: cell-based; conditions: 37RC cells, virus yield at 24 hours after infection

SMILES: CC(C)(C)[Si](C)(C)OC1C=CC(=O)/C1=C/c1ccccn1 (centres unmarked) [CTC-32, 4-tert.butyldimethylsilyloxy-5-[methylene-(2-pyridyl)]-cyclopent-2-ene-1-one]
- inhibition of NF-κB (NF-κB-DNA complex formation, EMSA) (NF-κB): potent inhibitors of NF-κB
- inhibition of Sendai virus replication [1]: potent inhibitors of Sendai virus replication
